PubChem BioAssay AID248 (DTP/NCI, 2004)
The list shows only some results of the screen, not a fair sample: it gathers tests that were run many times, whatever their T/C, doses with no T/C, and many T/C values between a quarter and a half above the control. Other doses and runs of a compound stand elsewhere. T/C: endpoint of the treated group in % of that of the vehicle group. Some entries give survivors of the animals treated and no T/C: the source files T/C as zero there, which appears to mark a toxic dose or a test without result, not a measured value. Some doses without a T/C left all or most animals alive at the check, yet need not have been tolerated: survival well below the control is almost never listed, so the zero probably covers shortened survival too. Counts of survivors are from the toxicity check (mostly the fifth day) where no day follows; animals may have died later. Schedules are NCI's codes, read here as Q, the interval in days (D) or hours (H), X, the number of doses. Some doses were run more than once; their values stand side by side, smallest first. Some schedules carry Z or #; the key to these is not given.

Test system: L1210 leukemia ip in BDF1 mice, survival T/C
Assay: NCI In Vivo Anticancer Drug Screen. Data for tumor model L1210 Leukemia (intraperitoneal) in B6D2F1 (BDF1) mice
Conditions: higher T/C = longer survival
[1] = T/C endpoint: mean survival time, dose: 400.0 mg/kg/injection, schedule: Q04DX003 (ip), vehicle: saline
[2] = T/C endpoint: mean survival time, dose: 400.0 mg/kg/injection, schedule: Q04DX003 (ip), vehicle: saline with Tween-80
[3] = T/C endpoint: mean survival time, dose: 400.0 mg/kg/injection, schedule: Q04DX002 (ip), vehicle: saline with Tween-80

Q: Which results are given for CC(=O)Oc1c(N)c(C)cc(C)c1F?
A: survivor count (T/C endpoint: mean survival time, dose: 50.0 mg/kg/injection, schedule: Q01DX001 (ip), vehicle: Klucel (hydroxypropylcellulose) (HPC)): 2 of 6; survivor count (T/C endpoint: mean survival time, dose: 100.0 mg/kg/injection, schedule: Q01DX001 (ip), vehicle: Klucel (hydroxypropylcellulose) (HPC)): 5 of 6; survivor count (T/C endpoint: mean survival time, dose: 200.0 mg/kg/injection, schedule: Q01DX001 (ip), vehicle: Klucel (hydroxypropylcellulose) (HPC)): 0 of 6

Q: For Cc1cc(C)[nH]c(=S)n1, which survivor count [1] is on record?
A: The survivor count was 6 of 6.

Q: Which survivor count (T/C endpoint: mean survival time, dose: 200.0 mg/kg/injection, schedule: Q01DX009 (ip), vehicle: water) does the source give for CCN(CC)CCCC(C)NC(=O)c1cccc2c([N+](=O)[O-])cccc12 (stereo unspecified) here?
A: The survivor count was 3 of 6.

Q: And the survivor count (T/C endpoint: mean survival time, dose: 400.0 mg/kg/injection, schedule: Q01DX009 (ip), vehicle: water)?
A: The survivor count was 0 of 6.

Q: Cc1cc(C(=O)C[n+]2ccccc2)c(CN2C(=O)c3ccccc3C2=O)c(=O)n1C was tested. Which survivor count (T/C endpoint: mean survival time, dose: 200.0 mg/kg/injection, schedule: Q01DX001 (ip), vehicle: water) did it give?
A: The survivor count was 2 of 6.

Q: And the survivor count (T/C endpoint: mean survival time, dose: 400.0 mg/kg/injection, schedule: Q01DX001 (ip), vehicle: water)?
A: Its survivor count is 0 of 6.

Q: With c1ccc(CCNCc2ccc(CNCCc3ccccc3)cc2)cc1 as the compound, how does the survivor count [2] read?
A: Its survivor count is 3 of 6.

Q: Which results are given for [B-][NH2+]CC[NH2+][B-]?
A: survivor count (T/C endpoint: mean survival time, dose: 100.0 mg/kg/injection, schedule: Q01DX001 (ip), vehicle: saline): 3 of 4; survivor count (T/C endpoint: mean survival time, dose: 200.0 mg/kg/injection, schedule: Q01DX001 (ip), vehicle: saline): 2 of 4

Q: What does the source list for CC(=O)[O][Hg][c]1sc2ccccc2c1C?
A: survivor count (T/C endpoint: mean survival time, dose: 13.0 mg/kg/injection, schedule: Q04DX003 (ip), vehicle: acetone): 3 of 6; survivor count (T/C endpoint: mean survival time, dose: 19.0 mg/kg/injection, schedule: Q01DX009 (ip), vehicle: saline with Tween-80): 5 of 6; survivor count (T/C endpoint: mean survival time, dose: 19.0 mg/kg/injection, schedule: Q04DX003 (ip), vehicle: acetone): 0 of 6; survivor count (T/C endpoint: mean survival time, dose: 28.0 mg/kg/injection, schedule: Q01DX009 (ip), vehicle: saline with Tween-80): 2 of 6

Q: CC1CN1C1=C(Cl)C(=O)C(N2CC2C)=C(Cl)C1=O (stereo unspecified) was tested. Which survivor count (T/C endpoint: mean survival time, dose: 25.0 mg/kg/injection, schedule: Q01DX009 (ip), vehicle: Klucel (hydroxypropylcellulose) (HPC)) did it give?
A: The survivor count was 0 of 6.

Q: What about the survivor count (T/C endpoint: mean survival time, dose: 50.0 mg/kg/injection, schedule: Q01DX009 (ip), vehicle: Klucel (hydroxypropylcellulose) (HPC)) of the same compound?
A: Its survivor count is 0 of 6.

Q: What about the survivor count (T/C endpoint: mean survival time, dose: 100.0 mg/kg/injection, schedule: Q01DX009 (ip), vehicle: Klucel (hydroxypropylcellulose) (HPC)) of the same compound?
A: Its survivor count is 0 of 6.

Q: And the survivor count (T/C endpoint: mean survival time, dose: 200.0 mg/kg/injection, schedule: Q01DX009 (ip), vehicle: Klucel (hydroxypropylcellulose) (HPC))?
A: The survivor count was 0 of 6.

Q: Which survivor count (T/C endpoint: mean survival time, dose: 200.0 mg/kg/injection, schedule: Q04DX003 (ip), vehicle: acetone) does the source give for CC1CN(C(C)(C)C)C1 here?
A: Its survivor count is 0 of 6.

Q: And the survivor count (T/C endpoint: mean survival time, dose: 400.0 mg/kg/injection, schedule: Q04DX003 (ip), vehicle: acetone)?
A: The survivor count was 0 of 6.

Q: How did the survivor count (T/C endpoint: mean survival time, dose: 6.0 mg/kg/injection, schedule: Q01DX015 (ip), vehicle: carboxymethylcellulose (CMC)) turn out when CC(=O)c1cccc(NC2C(N)C(NC(=O)N(C)C)(C(C)O)C(C)(O)C2(O)COC(=O)c2c(C)cccc2O)c1 (stereo unspecified) was run?
A: Its survivor count is 5 of 6.

Q: What about the survivor count (T/C endpoint: median survival time, dose: 32.0 mg/kg/injection, schedule: Q04DX003 (ip), vehicle: acid diluted with saline) of the same compound?
A: The survivor count was 3 of 8.

Q: How did the survivor count [3] turn out when Cn1c2c(c3ccccc31)C(=C(c1ccccc1)c1ccccc1)c1ccccc1-2 was run?
A: The survivor count was 3 of 3.

Q: Which survivor count (T/C endpoint: mean survival time, dose: 400.0 mg/kg/injection, schedule: Q04DX003 (ip), vehicle: Klucel (hydroxypropylcellulose) (HPC)) does the source give for Nc1ccccc1CSc1nc2nc[nH]c(=O)c2[nH]1 here?
A: The survivor count was 0 of 6.

Q: Which results are given for CN(C)Cc1cc(Cl)ccc1O?
A: survivor count (T/C endpoint: mean survival time, dose: 200.0 mg/kg/injection, schedule: Q04DX002 (ip), vehicle: Klucel (hydroxypropylcellulose) (HPC)): 0 of 3; survivor count (T/C endpoint: mean survival time, dose: 400.0 mg/kg/injection, schedule: Q04DX002 (ip), vehicle: Klucel (hydroxypropylcellulose) (HPC)): 0 of 3

Q: Which survivor count [3] does the source give for CCOC(=O)N/N=C(/C)c1ccc(C)cc1 here?
A: The survivor count was 0 of 3 and 2 of 6.

Q: How did the survivor count (T/C endpoint: mean survival time, dose: 50.0 mg/kg/injection, schedule: Q01DX Z (ip), vehicle: saline) turn out when O=C(Nc1cccc(C2=NCCN2)c1)c1cc(C(=O)Nc2cccc(C3=NCCN3)c2)cc(C(=O)Nc2cccc(C3=NCCN3)c2)c1 was run?
A: Its survivor count is 2 of 6.

Q: And the survivor count (T/C endpoint: mean survival time, dose: 75.0 mg/kg/injection, schedule: Q01DX Z (ip), vehicle: saline)?
A: The survivor count was 1 of 6.

Q: With C#CCOCCBr as the compound, how does the survivor count [2] read?
A: Its survivor count is 0 of 6.

Q: For CCCC(Cc1ccccc1)N1CCCC1 (stereo unspecified), which survivor count (T/C endpoint: mean survival time, dose: 50.0 mg/kg/injection, schedule: Q01DX009 (ip), vehicle: saline) is on record?
A: The survivor count was 3 of 6.

Q: And the survivor count (T/C endpoint: mean survival time, dose: 100.0 mg/kg/injection, schedule: Q04DX003 (ip), vehicle: saline)?
A: The survivor count was 0 of 4.

Q: What about the survivor count (T/C endpoint: mean survival time, dose: 200.0 mg/kg/injection, schedule: Q04DX003 (ip), vehicle: saline) of the same compound?
A: Its survivor count is 0 of 4.

Q: And the survivor count [1]?
A: Its survivor count is 0 of 4.

Q: N#Cc1cnc(N)c(C#N)c1 was tested. Which survivor count (T/C endpoint: mean survival time, dose: 300.0 mg/kg/injection, schedule: Q01DX009 (ip), vehicle: Klucel (hydroxypropylcellulose) (HPC)) did it give?
A: Its survivor count is 0 of 6.
